Source: PubChem BioAssay AID1347076 (National Center for Advancing Translational Sciences (NCATS), 2019)
Hit rate of the full screen: of about 400,000 compounds, about 13,000 (3.2%) were called active. The inconclusive results got no clear call from the source; some entries with a clear call stand among them for comparison. Calls follow the shape of the dose curve; as a rule, active = well fitted cell-killing curve with a large enough effect; inconclusive = small, poorly fitted or top-dose-only effect, or effect the other way; inactive = flat fitted curve, though single readings scatter. Potencies beside an inconclusive call are fits to weak or partial responses and may not hold up.
% is scaled to controls: 0 for no effect and ±100 for the full control effect; potency is read from the fitted curve at half-maximal effect.

Assay: qHTS assay for MDR1-selective chemotherapeutics: Primary screen using the drug-selected MDR subline cells KB-V1; also: nearly all actives have a fitted effect of over 60% in size
Details: KB-V1 MDR cells viability, CellTiter-Glo, 72 h; activity change, negative = cytotoxicity: at 46.1 µM (top of the series)
Summary of the method: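 KB-V1 MDR subline cells in DMEM (phenol-red free, 10% FBS) exposed to compounds in qHTS concentration series for 72 h at 37 degrees C. Viability read by CellTiter-Glo luminescence; concentration-effect curves fitted after normalization and correction.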
For O=C(c1ccc(-n2cccc2)cc1)N1CCCCC1, the Potency was inconclusive: 20.6 µM [cytotoxic, single point]. With Cc1nc(NC(=O)CC(C)C)sc1-c1csc(Nc2ccc(Cl)cc2Cl)n1 the Potency was inconclusive: 23.1 µM [cytotoxic, single point]. With COc1ccc(Cl)cc1C(=O)Nc1cccnc1 the Potency was inconclusive: 3.26 µM [rising, partial curve, poor fit]. For COc1c(OC2OC(C(=O)O)C(O)C(O)C2O)cc(O)c2c(=O)cc(-c3ccccc3)oc12 (stereo not drawn), the Potency was inconclusive: 29.1 µM [rising, single point]. In the case of Cc1c(C#N)c2ccccc2n1CC(=O)NCc1cccnc1, the Potency is reported as inconclusive: 29.1 µM [rising, single point]. For CC1=C(C(=O)Nc2ccccc2)C(c2ccc(Br)cc2)n2nc(CCCO)nc2N1 (stereo not drawn), the “activity change, negative = cytotoxicity” value was inactive: 4.79%. In the case of CC1CCCC(NC(=O)CCC(=O)N2CCOc3ccccc32)C1C (stereo not drawn), the Potency is reported as inconclusive: 1.3 µM [cytotoxic, full curve]. In the case of CC(C)Oc1cccc(C(=O)Nc2ccccc2N2CCOCC2)c1, the Potency is reported as inconclusive: 10.3 µM [cytotoxic, partial curve, poor fit]. In the case of NS(=O)(=O)c1cccc(NC(=O)COC(=O)Cc2ccc(S(=O)(=O)N3CCCCC3)s2)c1, the Potency is reported as inconclusive: 29.1 µM [rising, single point]. With COc1ccc(OC)c(C(=O)N/N=C/c2ccccn2)c1 the “activity change, negative = cytotoxicity” value was inactive: -0.76%. With CCOC(=O)CSC1=NC(=O)/C(=C/c2ccc(OC)cc2)S1 the Potency was inconclusive: 6.51 µM [cytotoxic, full curve]. In the case of Cc1nnc(NC(=O)c2ccc(S(=O)(=O)N3CCCCCC3)cc2)o1, the Potency is reported as inconclusive: 23.1 µM [cytotoxic, single point]. With COc1ccc(CN(C)CC(=O)Nc2ccccc2-c2ccccc2)c(OC)c1 the Potency was inconclusive: 23.1 µM [cytotoxic, single point]. For COc1cccc(CN2CCN(c3nc4nonc4nc3NC3CC3)CC2)c1, the Potency was inconclusive: 25.9 µM [cytotoxic, single point]. In the case of COc1ccccc1N1CCN(C(=O)c2nn(C)c3c2CS(=O)(=O)c2ccccc2-3)CC1, the Potency is reported as inconclusive: 0.58 µM [cytotoxic, full curve, poor fit]. With Cc1cccnc1NC1(C(F)(F)F)N=C2SCCN2C1=O (stereo not drawn) the “activity change, negative = cytotoxicity” value was inactive: 9.06%. For COc1cccc(C(=O)COc2ccc3c(C)c(Cc4ccccc4)c(=O)oc3c2)c1, the Potency was inconclusive: 14.6 µM [rising, single point]. For CC(=O)CSc1nc(-c2cccs2)c(C#N)c(=O)[nH]1, the Potency was inconclusive: 7.31 µM [rising, partial curve]. In the case of COc1cc(CCCN2C(N)=NC[C@@H]2c2ccccc2)cc(OC)c1OC, the Potency is reported as inconclusive: 29.1 µM [rising, single point]. For CCCc1cc(=O)[nH]c(Nc2cc(Cl)cc(Cl)c2)n1, the Potency was inconclusive: 18.4 µM [cytotoxic, single point]. With CCOc1ccc(S(=O)(=O)Nc2cccc(C(=O)NCC(c3ccco3)N(C)C)c2)cc1 (stereo not drawn) the Potency was inconclusive: 16.4 µM [cytotoxic, single point]. In the case of CCCOc1cccc(C(=O)Nc2ccccc2C(=O)N2CCN(C)CC2)c1, the Potency is reported as inconclusive: 8.2 µM [cytotoxic, partial curve]. For COc1cc(C(=O)N/N=C(\C)c2ccc3c(c2)OCO3)cc(OC)c1OC, the Potency was active: 5.17 µM. With CCOC(=O)c1c(CN2CCN(C)CC2)oc2ccc(OC)cc12 the “activity change, negative = cytotoxicity” value was inactive: 1.36%. With Cn1c(=O)c2c(nc(NCc3ccco3)n2CCc2ccccc2)n(C)c1=O the Potency was inconclusive: 11.6 µM [cytotoxic, partial curve, poor fit]. In the case of C[S+](CC[C@H](N)C(=O)O)C[C@H]1O[C@@H](n2cnc3c(N)ncnc32)[C@H](O)[C@@H]1O (stereo partly drawn), the “activity change, negative = cytotoxicity” value is reported as inactive: 9.99%. For O=C(Nc1ccc(S(=O)(=O)N2CCCC2)cc1)C1CC(=O)N(c2ccc(F)cc2)C1 (stereo not drawn), the Potency was inconclusive: 29.1 µM [rising, single point]. With COc1ccc(OCCNC(=O)C2(C)CCN2Cc2ccc(SC)cc2)cc1 (stereo not drawn) the Potency was inconclusive: 16.4 µM [cytotoxic, single point]. With O=C(CSc1nc(C2CC2)nc2ccccc12)Nc1cccc(O)c1 the “activity change, negative = cytotoxicity” value was inactive: -5.09%. In the case of COc1cccc(NC(=O)CCC(=O)Nc2cc(OC)c(NC(=O)c3cccs3)cc2OC)c1, the Potency is reported as inconclusive: 20.6 µM [cytotoxic, partial curve, poor fit]. With CN(Cc1ccccc1)c1ncnc2ccc(Br)cc12 the Potency was inconclusive: 29.1 µM [cytotoxic, single point]. For O=C(CSc1nnc(-c2ccncc2)n1Cc1ccccc1)NC1CCCc2ccccc21 (stereo not drawn), the Potency was active: 10.3 µM. In the case of Cc1nc2nc(Cc3ccccc3)nn2c(C)c1Cl, the Potency is reported as inconclusive: 11.6 µM [cytotoxic, partial curve]. With COc1ccc(-n2[nH]c3c(cnc4ccccc43)c2=O)cc1 the Potency was inconclusive: 25.9 µM [cytotoxic, partial curve, poor fit]. With CN(C)Cc1cc(C(F)(F)F)ccc1C(O)(c1ccccc1)c1ccccc1 the Potency was active: 20.6 µM. For CC(C)=CCOc1ccc2ccc(=O)oc2c1, the “activity change, negative = cytotoxicity” value was inactive: 13.3%. For CSc1nc2nc3c(cn2n1)C(=O)CC(c1ccccc1)C3 (stereo not drawn), the Potency was active: 13 µM. In the case of Fc1cccc(Cc2c(-c3ccccc3)nc3ccc(Cl)cn23)c1, the Potency is reported as inconclusive: 16.4 µM [cytotoxic, single point]. With COc1ccc(C(=O)OCC(=O)Nc2ccc3[nH]c(=O)[nH]c3c2)cc1 the Potency was inconclusive: 29.1 µM [rising, single point]. In the case of COc1ccccc1C(=O)Nc1nc2ccc(S(C)(=O)=O)cc2s1, the Potency is reported as active: 5.8 µM. In the case of COc1ccc(Cl)c(-c2cc(C(=O)NCc3ccc(C(F)(F)F)cc3)[nH]n2)c1, the Potency is reported as inconclusive: 20.6 µM [cytotoxic, partial curve, poor fit]. With COc1cccc(CCNC(=O)CC2C(=O)NCCN2Cc2ccc(C)o2)c1 (stereo not drawn) the Potency was inconclusive: 29.1 µM [rising, single point]. With COC(=O)c1ccccc1NC(=O)c1ccc2c(c1)CCN2S(=O)(=O)c1ccc(Cl)cc1 the Potency was inconclusive: 14.6 µM [rising, single point]. For FC(F)(F)Oc1ccccc1C(c1nnnn1C1CCCCC1)N1CCN(C/C=C/c2ccccc2)CC1 (stereo not drawn), the “activity change, negative = cytotoxicity” value was inactive: 0%. In the case of Cc1ccc(C(=O)c2c(NC(=O)c3ccccc3)sc(C)c2C)cc1, the Potency is reported as active: 9.2 µM. With Cc1cc(NC(=O)COc2ccc(C)c(C)c2)no1 the Potency was inconclusive: 14.6 µM [rising, partial curve, poor fit]. With CCOC(=O)N1CCN(C(=O)c2ccc3c(SCC(=O)O)c4c(nc3c2)CCCC4)CC1 the Potency was inconclusive: 20.6 µM [cytotoxic, single point]. With COc1ccc(Cl)cc1CC1(C)C(=O)Nc2c(Cl)cccc21 (stereo not drawn) the Potency was inconclusive: 23.1 µM [cytotoxic, partial curve]. For COc1ccc(-c2cc(OC(=O)c3cccc(Cl)c3)c3c(C)oc(C)c3c(=O)c2)cc1OC, the “activity change, negative = cytotoxicity” value was inactive: 8.12%. For CSc1nnc(-c2ccccc2Cl)n1N, the Potency was inconclusive: 29.1 µM [rising, partial curve, poor fit]. With CCCCOn1c(C)c(C(=O)OCC)c2c3no[n+]([O-])c3ccc21 the “activity change, negative = cytotoxicity” value was inactive: -25.5%. With CC(C)Oc1cc2ccccc2cc1CNC[C@H]1O[C@@H](n2cnc3c(N)ncnc32)[C@H](O)[C@@H]1O the “activity change, negative = cytotoxicity” value was inactive: 0%. In the case of N#Cc1nc(/C=C/c2ccc(F)cc2)oc1N1CCCCCC1, the “activity change, negative = cytotoxicity” value is reported as inactive: 0.577%. With Cc1ccc(S(=O)(=O)/N=C2/C=C(Sc3ncn[nH]3)C(=O)c3ccccc32)cc1 the Potency was inconclusive: 29.1 µM [cytotoxic, single point]. For Cc1ccc(NC(=O)/C(C#N)=C(\N)C(Cl)(Cl)Cl)nc1, the Potency was inconclusive: 29.1 µM [cytotoxic, single point]. In the case of S=C(NCCCc1ccccc1)Nc1ccc(Cl)cc1, the Potency is reported as inconclusive: 23.1 µM [cytotoxic, single point]. With CCC(OC(=O)c1ccco1)C(=O)NCc1ccc2c(c1)OCO2 (stereo not drawn) the Potency was inconclusive: 29.1 µM [cytotoxic, single point]. For Fc1ccc(-c2nc3n(n2)Cc2ccccc2-3)cc1, the Potency was inconclusive: 29.1 µM [cytotoxic, single point]. With COC1=CC(=O)C[C@@H](C)[C@]12Oc1c(Cl)c(OC)cc(OC)c1C2=O the Potency was inconclusive: 23.1 µM [cytotoxic, single point]. For O=C(/C=C/c1cccc([N+](=O)[O-])c1)c1ccc([N+](=O)[O-])o1, the “activity change, negative = cytotoxicity” value was inactive: 0%. With O=C(Nc1ccc(Cl)c(C(F)(F)F)c1)C1Cc2c(-c3ccccc3)ccnc2O1 (stereo not drawn) the “activity change, negative = cytotoxicity” value was inactive: -0.629%. With O=C(CSc1ccc(-c2ccc(F)cc2)nn1)N1CCCc2ccccc21 the Potency was inconclusive: 25.9 µM [cytotoxic, single point]. With COC(=O)c1ccc(Cn2cnc3c(cnn3-c3ccc(C)c(C)c3)c2=O)o1 the Potency was inconclusive: 29.1 µM [cytotoxic, single point]. With O=C(c1cc(N2CCCCC2)nc2ccccc12)N1CCOCC1 the Potency was inconclusive: 16.4 µM [cytotoxic, partial curve]. For COc1ccc(CNC(=O)C2CCC(=O)N(C3CCCCCC3)C2)c(OC)c1 (stereo not drawn), the Potency was inconclusive: 18.4 µM [cytotoxic, single point]. For COc1ccc(NS(=O)(=O)c2ccc(F)c(Cl)c2)cn1, the Potency was inconclusive: 29.1 µM [cytotoxic, single point]. For CC1CCCCN1C(=S)Nc1ccc2nc3n(c(=O)c2c1)CCCCC3 (stereo not drawn), the Potency was inconclusive: 18.4 µM [cytotoxic, single point]. For CCc1c(C)sc(NC(=O)c2cc3nc(-c4ccc(OC)cc4)cc(C(F)(F)F)n3n2)c1C(=O)OC, the “activity change, negative = cytotoxicity” value was inactive: -2.67%.
